# Ends that are not written are not given here.
# Assay: general procedure: solution-phase peptide synthesis; DCC/HOBt; OTcp or OOBt active esters with HOBt; azide coupling (tert.-butyl nitr)
# Conditions: 2 HCl or diacetate
substance,measurement,setting,value
Z-Trp-Ser-Tyr(Etoc)-Gly-OEt,step yield,coupling step,76%
H-D-Leu-Cys(Bu^t)-Arg-Pro-NH-C2 H5 -diacetate,difficulty met,coupling step,The compound was strongly contaminated
same,step yield,"coupling step, run 1",40%
EHWSYG-OH,step yield,"coupling step, calculated on H-Trp-Ser-Tyr(Etoc)-Gly-OEt",ca. 10%
H-D-Leu-Ser(Bu^t)-Arg-Pro-cyclopropylamide . 2 HCl,step yield,"coupling step, calculated on Z-D-Leu-OTcp",76%
H-Ser-Tyr-D-Ala-Cys(Bu^t)-Arg-Pro-NH-C2 H5 -diacetate,step yield,"coupling step, calculated on Z-Ser-Tyr(Bzl)--OH",58%
H-Lys(Boc)-Arg-Pro-Gly-NH2 . 2HCl,difficulty met,coupling step,the substance was not homogeneous with regard to thin layer chromatography
H-D-Ala-Lys(Boc)-Arg-Pro-NH-C2 H5 . 2 HCl,difficulty met,coupling step,Since the substance was strongly contaminated
same,step yield,"coupling step, calculated on the H-Lys(Boc)-Arg-Pro-NH-C2 H5 . 2 HCl",45%
Glu-His-Trp-Ser-Tyr-Gly-Cys(Bu^t)-Arg-Pro-NH-C2 H5 -diacetate,step yield,"coupling step, corrected for peptide content 78.4%",30% yield
Z-Ser-Tyr(Bzl)-Gly-Cys(Bu^t)-Arg-Pro-NH-C2 H5,step yield,coupling step,91%
H-Ser-Tyr-D-Ala-Lys(Boc)-Arg-Pro-NH-C2 H5 . 2 HCl,difficulty met,coupling step,not homogeneous with regard to thin layer chromatography (contaminated by three by-products)
same,step yield,"coupling step, calculated on Z-Ser-Tyr(Bzl)-OOBt",76%
H-Trp-Ser-Tyr(Etoc)-Gly-OEt.HCl,step yield,late stage modification step,97%
Glu-His-Trp-Ser-Tyr-Gly-Lys(Boc)-Arg-Pro-Gly-NH2,step yield,coupling step,23%

# Reference: patent US4003884 (dated 1977)
